According to patent US4783461A, “3,6-disubstituted triazolo [3,4-A]phthalazine derivatives” (Gruppo Lepetit S.p.A., priority 1983, dated 1988):

Target: rat brain benzodiazepine receptors (3H-diazepam receptor)
Assay: benzodiazepine-receptor binding test in vitro (inhibition of specific 3H-diazepam binding to rat brain membranes)
Conditions: constant used in the Ki formula, read-out: KD, affinity constant of 3H-diazepam for its receptor
From the text: The pharmacological properties of the compounds of the present invention were first investigated by submitting some representative members of this class to the benzodiazepine-receptor binding-test in vitro.

Compound: CN1C(=O)CN=C(c2ccccc2)c2cc(Cl)ccc21 [^3 H-diazepam, reference compound]
- Kd: 3.4 nM
